Data as given in PubChem BioAssay AID1224829 (NIAID, 2016)
Assay: 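Genes needed for LPS-driven NF-kappaB p65 nuclear entry in mouse macrophages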 (follow-up of hits). Cells: mouse RAW264.7 G9 macrophage reporter cells. Reagents: single siRNA against mouse genes, 100 nM. Time to read-out: 2 days of siRNA knock-down, then 40 min of LPS before fixing. Treatment: LPS (Salmonella minnesota R595) at 10 ng/ml. Measurement: 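Imaging of GFP-p65 after 40 min of LPS; nuclear over perinuclear ring intensity ratio, scaled to plate median and non-targeting control wells, given as z-score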. Scale: p65 translocation z-score and gene median z-score, per vendor: higher = more nuclear NF-kappaB p65 after LPS. Active means: 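An siRNA is called active when the mean z-score of its two replicates is above 2 or below -2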. Calls: active = changed p65 translocation (either direction); inactive = no clear change.
The whole screen tested about 3,800 reagents; below is a part drawn at random. 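Calls cover raised and lowered translocation; gene median uses one vendor's three siRNAs; qiagen siRNAs acted more weakly than ambion siRNAs.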 Entries without a mark were called inactive. No sequences are given here.

| target gene | PubChem SID | siRNA vendor or control pool | p65 translocation z-score, replicate mean | p65 translocation z-score, replicate 1 | p65 translocation z-score, replicate 2 | gene median z-score, per vendor |
| --- | --- | --- | --- | --- | --- | --- |
| Aqp7 | SID315483765 | ambion single siRNA | -1 | -1.2 | -0.807 | -1.01 |
| Aqp7 | SID315483766 | ambion single siRNA | -1.79 | -0.632 | -2.94 | -1.01 |
| Aqp7 | SID315483767 | ambion single siRNA | -1.22 | -1.62 | -0.811 | -1.01 |
| Aqp7 | SID315483768 | qiagen single siRNA | 0.508 | 0.257 | 0.758 | -1.83 |
| Aqp7 | SID315483769 | qiagen single siRNA | -1.83 | -1.8 | -1.87 | -1.83 |
| Aqp7 | SID315483770 | qiagen single siRNA | -3.37 (active) | -3.82 | -2.93 | -1.83 |
| Ufd1 | SID315485076 | ambion single siRNA | -2.2 (active) | -1.85 | -2.54 | 0.641 |
| Ufd1 | SID315485077 | ambion single siRNA | 1 | 1.03 | 0.972 | 0.641 |
| Ufd1 | SID315485078 | ambion single siRNA | 1.52 | 2.73 | 0.311 | 0.641 |
| Ufd1 | SID315485079 | qiagen single siRNA | -4.99 (active) | -4.43 | -5.55 | -3.26 |
| Ufd1 | SID315485080 | qiagen single siRNA | -2.85 (active) | -3.28 | -2.41 | -3.26 |
| Ufd1 | SID315485081 | qiagen single siRNA | -3.08 (active) | -2.91 | -3.24 | -3.26 |
| Cebpd | SID315483942 | ambion single siRNA | -1.91 | -2.01 | -1.81 | -1.68 |
| Cebpd | SID315483943 | ambion single siRNA | 0.871 | 0.124 | 1.62 | -1.68 |
| Cebpd | SID315483944 | ambion single siRNA | -2.04 (active) | -2.52 | -1.55 | -1.68 |
| Cebpd | SID315483945 | qiagen single siRNA | 0.29 | -0.568 | 1.15 | -0.568 |
| Cebpd | SID315483946 | qiagen single siRNA | -1.42 | -0.424 | -2.41 | -0.568 |
| Cebpd | SID315483947 | qiagen single siRNA | -1.52 | -1.52 | – | -0.568 |
| C730034F03Rik | SID315488874 | ambion single siRNA | -2.29 (active) | -2.28 | -2.29 | -2.09 |
| C730034F03Rik | SID315488875 | ambion single siRNA | -1.72 | -1.55 | -1.89 | -2.09 |
| C730034F03Rik | SID315488876 | ambion single siRNA | -3.17 (active) | -1.6 | -4.75 | -2.09 |
| C730034F03Rik | SID315488877 | qiagen single siRNA | 1.54 | 1.02 | 2.05 | -0.501 |
| C730034F03Rik | SID315488878 | qiagen single siRNA | -0.501 | -0.735 | -0.267 | -0.501 |
| C730034F03Rik | SID315488879 | qiagen single siRNA | -1.64 | -1.35 | -1.92 | -0.501 |
| Grhl1 | SID315488010 | ambion single siRNA | -0.74 | -0.855 | -0.625 | -2.48 |
| Grhl1 | SID315488011 | ambion single siRNA | -2.48 (active) | -2.38 | -2.58 | -2.48 |
| Grhl1 | SID315488012 | ambion single siRNA | -8.94 (active) | -10.1 | -7.81 | -2.48 |
| Grhl1 | SID315488013 | qiagen single siRNA | -0.977 | -1.14 | -0.81 | -0.81 |
| Grhl1 | SID315488014 | qiagen single siRNA | -0.945 | -1.17 | -0.721 | -0.81 |
| Grhl1 | SID315488015 | qiagen single siRNA | -0.382 | -0.382 | – | -0.81 |
| Pofut1 | SID315487770 | ambion single siRNA | -0.69 | -0.751 | -0.628 | -3.49 |
| Pofut1 | SID315487771 | ambion single siRNA | -4.51 (active) | -5.79 | -3.23 | -3.49 |
| Pofut1 | SID315487772 | ambion single siRNA | -5.12 (active) | -6.48 | -3.75 | -3.49 |
| Pofut1 | SID315487773 | qiagen single siRNA | -0.875 | -0.741 | -1.01 | -2.8 |
| Pofut1 | SID315487774 | qiagen single siRNA | -3.86 (active) | -1.99 | -5.72 | -2.8 |
| Pofut1 | SID315487775 | qiagen single siRNA | -5.31 (active) | -3.61 | -7 | -2.8 |
| Chst8 | SID315486576 | ambion single siRNA | -2.15 (active) | -2.15 | – | -1.32 |
| Chst8 | SID315486577 | ambion single siRNA | -0.483 | -0.483 | – | -1.32 |
| Chst8 | SID315486578 | ambion single siRNA | 1.16 | 5.24 | -2.92 | -1.32 |
| Chst8 | SID315486579 | qiagen single siRNA | 0.967 | 0.509 | 1.43 | -0.492 |
| Chst8 | SID315486580 | qiagen single siRNA | -1.4 | -1.6 | -1.19 | -0.492 |
| Chst8 | SID315486581 | qiagen single siRNA | -0.492 | 0.0188 | -1 | -0.492 |
| Rps4l | SID315486345 | ambion single siRNA | 0.346 | -3.92 | 4.62 | -0.788 |
| Rps4l | SID315486346 | ambion single siRNA | -2.67 (active) | -4.01 | -1.33 | -0.788 |
| Rps4l | SID315486347 | ambion single siRNA | 1.24 | 2.73 | -0.249 | -0.788 |
| Rps4l | SID315486348 | qiagen single siRNA | 1.68 | 0.881 | 2.48 | -0.326 |
| Rps4l | SID315486349 | qiagen single siRNA | -1.36 | -2.39 | -0.326 | -0.326 |
| Rps4l | SID315486350 | qiagen single siRNA | -4.48 (active) | -4.48 | – | -0.326 |
| Sh2d2a | SID315485379 | ambion single siRNA | -1.09 | -1.43 | -0.749 | -1.44 |
| Sh2d2a | SID315485380 | ambion single siRNA | -3.28 (active) | -4.59 | -1.98 | -1.44 |
| Sh2d2a | SID315485381 | ambion single siRNA | -1.37 | -1.45 | -1.3 | -1.44 |
| Sh2d2a | SID315485382 | qiagen single siRNA | 1.18 | 0.78 | 1.58 | 0.78 |
| Sh2d2a | SID315485383 | qiagen single siRNA | -0.634 | 0.649 | -1.92 | 0.78 |
| Sh2d2a | SID315485384 | qiagen single siRNA | 1.7 | 1.7 | – | 0.78 |

An excerpt of the results above, as a working copy:
| target gene | PubChem SID | siRNA vendor or control pool | p65 translocation z-score, replicate mean | p65 translocation z-score, replicate 1 | p65 translocation z-score, replicate 2 | gene median z-score, per vendor |
| --- | --- | --- | --- | --- | --- | --- |
| Ufd1 | SID315485076 | ambion single siRNA | -2.2 (active) | -1.85 | -2.54 | 0.641 |
| Ufd1 | SID315485077 | ambion single siRNA | 1 | 1.03 | 0.972 | 0.641 |
| Ufd1 | SID315485078 | ambion single siRNA | 1.52 | 2.73 | 0.311 | 0.641 |
